Measured values as given in publication PMC12302648.
No constants are given. Whether binding was seen depends on the method and setting. For some assays here: Binding seen in cells or lysates may run through a third protein. Some results given as binding are weak or reduced against the parent protein; the word gives no strength. For some assays here: Where a sequence is shown, tags or fusion partners need not be part of it.

T1: Recombinant GST-tagged MTCH2 fusion protein (UniProt Q791V5)
T1 sequence: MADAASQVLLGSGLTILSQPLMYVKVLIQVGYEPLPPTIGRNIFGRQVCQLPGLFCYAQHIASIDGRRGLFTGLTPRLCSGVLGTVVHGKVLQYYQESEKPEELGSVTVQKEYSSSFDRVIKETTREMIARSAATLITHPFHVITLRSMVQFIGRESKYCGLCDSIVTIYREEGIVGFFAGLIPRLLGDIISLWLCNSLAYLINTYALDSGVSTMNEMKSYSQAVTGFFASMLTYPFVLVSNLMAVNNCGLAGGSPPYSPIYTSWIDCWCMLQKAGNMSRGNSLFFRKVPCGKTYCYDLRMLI

T2: Fibroblast growth factor 13 (FGF13), endogenous in mouse primary neurons (mouse (endogenous in primary neurons)) (UniProt P70377)
T2 sequence: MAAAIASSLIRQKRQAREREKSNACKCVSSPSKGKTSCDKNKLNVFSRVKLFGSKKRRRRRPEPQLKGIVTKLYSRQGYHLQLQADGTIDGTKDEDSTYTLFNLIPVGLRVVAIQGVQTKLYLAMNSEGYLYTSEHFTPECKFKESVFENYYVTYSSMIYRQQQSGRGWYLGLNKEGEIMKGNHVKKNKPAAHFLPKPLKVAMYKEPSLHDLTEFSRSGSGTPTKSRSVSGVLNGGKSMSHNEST


Experiments:
[1] = molecular target: T1, Recombinant GST-tagged MTCH2 fusion protein; test: pull-down; glutathione-agarose beads coated with GST-MTCH2 incubated with His-FGF13 in the binding buffer at 4 °C for 12 h; western blotting with anti-His and anti-GST antibodies; both purified
[2] = molecular target: T2, Fibroblast growth factor 13 (FGF13), endogenous in mouse primary neurons (mouse (endogenous in primary neurons)); test: co-IP; primary neuron lysates incubated with anti-FGF13 or anti-MTCH2 antibodies at 4 °C overnight, Protein A/G PLUS-Agarose, western blotting; control, MPP+-treated and Abacavir-pretreated neurons

Binder | binding [1] | binding [2]
His-FGF13 fusion protein (protein, UniProt P70377 1-245) MAAAIASSLIRQKRQAREREKSNACKCVSSPSKGKTSCDKNKLNVFSRVKLFGSKKRRRRRPEPQLKGIVTKLYSRQGYHLQLQADGTIDGTKDEDSTYTLFNLIPVGLRVVAIQGVQTKLYLAMNSEGYLYTSEHFTPECKFKESVFENYYVTYSSMIYRQQQSGRGWYLGLNKEGEIMKGNHVKKNKPAAHFLPKPLKVAMYKEPSLHDLTEFSRSGSGTPTKSRSVSGVLNGGKSMSHNEST | binds | 
MTCH2, endogenous in mouse primary neurons (protein, UniProt Q791V5 1-303) MADAASQVLLGSGLTILSQPLMYVKVLIQVGYEPLPPTIGRNIFGRQVCQLPGLFCYAQHIASIDGRRGLFTGLTPRLCSGVLGTVVHGKVLQYYQESEKPEELGSVTVQKEYSSSFDRVIKETTREMIARSAATLITHPFHVITLRSMVQFIGRESKYCGLCDSIVTIYREEGIVGFFAGLIPRLLGDIISLWLCNSLAYLINTYALDSGVSTMNEMKSYSQAVTGFFASMLTYPFVLVSNLMAVNNCGLAGGSPPYSPIYTSWIDCWCMLQKAGNMSRGNSLFFRKVPCGKTYCYDLRMLI |  | binds
